Laboratory results: patent US11446353B2, “Compositions and methods for the treatment of fungal infections” (priority 2014, dated 2022)

Tested on: Coccidioides posadasii Δcts2/Δard1/Δcts3

CN[C@@H]1C[C@H]2O[C@@](C)([C@@H]1OC)n1c3ccccc3c3c4c(c5c6ccccc6n2c5c31)C(=O)NC4 [staurosporine]
IC50 values over the course of the experiment: remained generally consistent
